From the supplement of paper PMC3334620
The full ranking holds about 33,000 sequences; the median of “E-score (-0.5 to 0.5)” is about -0.0034, and the highest 2% start at about 0.25. Some of the results follow.

biological target: T1, Yap3 (UniProt P38749); test: PBM E-score (8-mer binding enrichment) (E-score (-0.5 to 0.5)); higher = stronger / more preferred TF binding; conditions: protein concentration: 100 nM; construct: GST-full length
T1 sequence: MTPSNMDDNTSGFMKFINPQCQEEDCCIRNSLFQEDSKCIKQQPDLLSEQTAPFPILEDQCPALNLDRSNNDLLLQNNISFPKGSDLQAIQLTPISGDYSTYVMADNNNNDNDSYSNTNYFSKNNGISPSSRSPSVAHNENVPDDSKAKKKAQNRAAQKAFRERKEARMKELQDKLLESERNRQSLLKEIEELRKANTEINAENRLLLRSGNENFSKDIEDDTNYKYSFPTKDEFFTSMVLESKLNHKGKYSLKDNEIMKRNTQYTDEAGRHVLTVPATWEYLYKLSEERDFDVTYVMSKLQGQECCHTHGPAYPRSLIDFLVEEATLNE
Procedure, shortened: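 Using PURExpress in vitro transcription/translation, GST-tagged yeast transcription factors were made in full-length or DNA-binding-domain form. These were applied at about 100-200 nM to double-stranded universal all-10-mer Agilent arrays, and bound protein was detected with fluorescent anti-GST. Scans were normalised with masliner before the Universal PBM Analysis Suite assigned E-scores to ungapped eight-base words pooled with their reverse complements.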

Sequence	PBM E-score
CATGTGTA	0.0375
AGGAGCAC	-0.0593
CAGCACCG	-0.178
AAGGGATC	-0.103
ATCCCGTA	0.122
CGGAGATA	0.0542
AGGAGCTA	-0.183
AGTCCAGA	-0.104
CGTCTCCA	0.0909
ATCGGGAC	-0.205
ACAAATAC	0.293
CTACCCTA	-0.0536
TACTACGA	0.143
TAACCCGA	-0.0757
CCAGACAA	-0.147
TAGGGTGA	0.106
TCCTCTAA	-0.00323
GGTCACAC	-0.263
ACGACTTA	-0.134
GACTGCAC	-0.119
CTGAAGAC	-0.101
CCGAGTAA	-0.0172
ACGAAATC	0.185
AGTCGAAC	0.0695
GAACATGC	-0.0813

Sequence	PBM E-score
ATCAGCAC	0.0374
AATTCAAT	0.11
CAATCGCC	0.108
AGCGATCG	0.193
CCCTCACC	-0.206
CGCAAATA	0.0715
GGGCGTCA	-0.044
GCCGCCAA	-0.144
GATTTCAC	0.0394
GCTTTAAA	0.0131
AAGAGGGG	-0.144
CCGCGTCG	-0.0382
ACGCAGGA	-0.0758
ATACATAT	0.286
AATGTAAG	0.307
GATAATAC	0.182
AGCGCTGC	-0.0724
ATAACATG	0.113
CAACACAA	0.19
ACCCAATA	-0.0657
AACCGGAA	0.146
CCGACGCA	-0.138
ACGCCCTG	-0.0413
CATGCGCA	0.0286
GCGCGGCC	-0.0647

Sequence	PBM E-score
AATGGGCT	-0.13
TGGGGTAA	0.0902
GGGGAACA	-0.09
CGCTTCAC	-0.0891
AGAGTAGG	0.0861
ACTCTTGC	0.00857
ATACCCGA	-0.0505
AGCAGAGG	-0.0701
ACGTTCTC	0.0645
CTCCCGCC	-0.102
GAATTGTC	-0.034
CGACCCAA	0.00464
ATCTGAGG	0.0592
TTATTCAA	0.0561
AGGGGCGA	-0.0939
CAGAGCGA	-0.0428
GTGGTTTA	0.14
GCGCGCCA	0.11
ACATCTAA	0.0483
CCTCGCAA	-0.0826
AACCCTCG	-0.117
GCATACGC	-0.134
ATGATAGG	0.0502
AGTCAAAT	0.148
AGGGTCCA	-0.282

Sequence	PBM E-score
AGCAGTAA	0.0681
CCCGTAAC	0.00568
TGAGGCAA	0.0933
AGGAAACG	0.157
ACGGTCAG	-0.149
ACTCTATG	-0.122
CTCCGGAG	-0.138
CAACAAAA	0.197
CACCCTTC	-0.13
TTACATAA	0.416
TCCGCGGA	-0.109
ACATTGAG	0.0744
GACTTAGA	-0.148
TCCAGAAA	0.101
CAGTTACG	0.0281
CTAAGTGA	0.0311
ATGCTATC	-0.044
ACTGTGAA	0.0362
ACTCGATC	0.0389
CACTTGCA	0.115
CAAGGCGA	-0.168
GGTGAGAA	0.0668
CAGATGAA	0.0998
AACAGCCG	-0.147
GACGACAC	0.0496

Sequence	PBM E-score
ACCGGCAA	-0.091
AGTTTACC	-0.0608
ACAGCATA	0.0839
CGGAGTGA	-0.0448
AGCCAGCG	-0.115
ACTCTCCT	-0.159
CCTAGGCC	-0.165
AGATTCAG	-0.112
CAAAGGGG	-0.055
GCCGACGC	-0.0231
CAAAGATC	-0.0566
AATGTCAG	0.0292
ACTCTCTA	0.0284
CAAACAAG	0.129
GCATCTCA	0.0566
ATGCATCA	0.227
AAACGCCC	-0.0565
CACAACTC	0.127
ATACAAGG	0.145
GCAGCGCA	-0.294
CTTTATCA	0.126
CGCTACAC	-0.0665
AGCTCACG	-0.0323
ACAAAGCA	0.175
ACTTAACA	-0.0143

Sequence	PBM E-score
ATCGTAAT	0.242
AGCTAATG	0.00146
CCATTCAA	-0.059
CGAGACAA	0.0269
ATACCTGC	-0.105
AGGGACGG	-0.278
AATGTGTA	0.116
GGAGACAC	0.0787
CACTATAC	0.0594
CAGAAGCC	-0.163
TATCGCAA	0.0834
GAGTGAAC	-0.0276
CGCCGCGC	0.0129
CCTTGTTC	0.00595
CACCCAGA	-0.0341
ATAGTGAC	0.0267
CATTGGCG	-0.203
ACCCAGCA	-0.112
ATCATCTA	0.0308
ATCCTAAT	0.0634
ATTCTAGG	-0.0152
CTACAGAC	-0.185
AGGAACAG	-0.0271
GCAGCGAA	-0.0852
GATGTGCA	-0.0409

Sequence	PBM E-score
ATGTTTTC	0.172
ATCAAATA	0.241
ATGACGTA	0.277
ATGGTTGC	-0.112
CAAGAACG	0.0695
CACCAGCG	-0.138
AACTTAAA	0.12
ATACTACA	0.28
ATTGGCCC	-0.361
CCGCGGAC	-0.195
AACACTGT	0.0465
AATGAGAG	-0.0586
CAGTAAAG	0.0758
CGCAGAAA	0.0726
GGTAGTGA	-0.0469
GGACGACA	0.124
AACGTTTC	0.0776
CTCTTACC	0.0816
TCGTCTCA	-0.042
CCCCCGCG	-0.254
CAGCAAAA	0.0978
GCATTCGA	0.145

Already shown: entries from further up.
Sequence	PBM E-score
CGCTACAC	-0.0665
AGCTCACG	-0.0323
ACAAAGCA	0.175
ACTTAACA	-0.0143
ATCGTAAT	0.242
AGCTAATG	0.00146
CCATTCAA	-0.059
CGAGACAA	0.0269
ATACCTGC	-0.105
AGGGACGG	-0.278
AATGTGTA	0.116
GGAGACAC	0.0787
CACTATAC	0.0594
CAGAAGCC	-0.163
TATCGCAA	0.0834
GAGTGAAC	-0.0276
CGCCGCGC	0.0129
CCTTGTTC	0.00595
CACCCAGA	-0.0341
ATAGTGAC	0.0267
CATTGGCG	-0.203
ACCCAGCA	-0.112
ATCATCTA	0.0308
ATCCTAAT	0.0634
ATTCTAGG	-0.0152
CTACAGAC	-0.185
AGGAACAG	-0.0271
GCAGCGAA	-0.0852
GATGTGCA	-0.0409
ATGTTTTC	0.172
ATCAAATA	0.241
ATGACGTA	0.277
ATGGTTGC	-0.112
CAAGAACG	0.0695
CACCAGCG	-0.138
AACTTAAA	0.12
ATACTACA	0.28
ATTGGCCC	-0.361
CCGCGGAC	-0.195
AACACTGT	0.0465
AATGAGAG	-0.0586
CAGTAAAG	0.0758
CGCAGAAA	0.0726
GGTAGTGA	-0.0469
GGACGACA	0.124
AACGTTTC	0.0776
CTCTTACC	0.0816
TCGTCTCA	-0.042
CCCCCGCG	-0.254
CAGCAAAA	0.0978
GCATTCGA	0.145
